Laboratory results from publication PMC2862740, “Furin Targeted Drug Delivery for Treatment of Rhabdomyosarcoma in a Mouse Model” (PLoS ONE, 2010).
The amount applied is not stated for every result. Positions of bridges follow the written chain, without caps; N, C: chain ends. No end group written: not given here.

Tests used:
RMS xenografts (Rh4) = assay: in vivo phage selection; set-up: species or system mouse; settings: two rounds of in vivo selection; 30 phages sequenced
RD cells = assay: phage-displayed cyclic peptide library in vitro panning; assay type: cell-based; settings: phage panning on RD cells, five rounds; 40 phages from each in vitro screening sequenced

Sequence	Frequency in selection in vivo (count of sequenced phages) (RMS xenografts (Rh4))	Frequency in both selections in vitro (count of sequenced phages) (RD cells)
CGTGSRARRSC (disulfide 1-11 (inferred)) [RMS-P7]	3/30	7/80
CLTGRQRRSSQC (disulfide 1-12 (inferred)) [RMS-P10]	2/30	4/80
CMGTINTRTKKC (disulfide 1-12 (inferred)) [RMS-P3]		14/80
CMGTTNTRTKKC (disulfide 1-12 (inferred)) [RMS-P6]		34/80
CRTGRQRRSSEC (disulfide 1-12 (inferred)) [RMS-P8]	2/30	3/80
CSGPNVRSRRC (disulfide 1-11 (inferred)) [RMS-P9]	2/30	3/80
